In PMC7545994:
Read-outs that look alike come from different tables or passages of the source. Results are given in words; binding and its absence hold for the method and conditions named. In cells and extracts the contact can be indirect. Some entries that bind do so weakly or less than the wild type. For some assays here: Sequences can lack the tags named with a protein. One block for each molecule: values may come before it.

Protein sequences, listed by entry. Tags and fused reporters are not part of them. Lines headed by an entry give the natural chain unless they say otherwise; changes in a name come on top. Residues count along the entry.
UniProt P10909, residues 23-449: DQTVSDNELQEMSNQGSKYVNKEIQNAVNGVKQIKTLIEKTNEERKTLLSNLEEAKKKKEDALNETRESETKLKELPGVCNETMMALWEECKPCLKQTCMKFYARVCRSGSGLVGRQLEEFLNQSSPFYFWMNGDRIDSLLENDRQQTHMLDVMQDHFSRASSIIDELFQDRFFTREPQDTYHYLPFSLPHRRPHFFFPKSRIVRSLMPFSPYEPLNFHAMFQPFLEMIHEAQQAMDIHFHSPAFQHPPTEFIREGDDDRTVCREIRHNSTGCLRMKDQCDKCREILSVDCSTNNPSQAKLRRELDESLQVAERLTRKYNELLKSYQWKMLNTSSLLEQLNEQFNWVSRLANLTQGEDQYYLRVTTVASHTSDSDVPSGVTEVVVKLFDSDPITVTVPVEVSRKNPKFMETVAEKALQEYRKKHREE

Assays:
[1] = target: T1, TGFBR1-myc (UniProt P36897); assay: co-IP; 293T cells co-transfected with CLU-3×Flag and TGFBR1-myc (or its mutant) for 24 h; IP with Flag or with myc antibody, immunoblot with Flag and Myc tag antibodies
T1 sequence: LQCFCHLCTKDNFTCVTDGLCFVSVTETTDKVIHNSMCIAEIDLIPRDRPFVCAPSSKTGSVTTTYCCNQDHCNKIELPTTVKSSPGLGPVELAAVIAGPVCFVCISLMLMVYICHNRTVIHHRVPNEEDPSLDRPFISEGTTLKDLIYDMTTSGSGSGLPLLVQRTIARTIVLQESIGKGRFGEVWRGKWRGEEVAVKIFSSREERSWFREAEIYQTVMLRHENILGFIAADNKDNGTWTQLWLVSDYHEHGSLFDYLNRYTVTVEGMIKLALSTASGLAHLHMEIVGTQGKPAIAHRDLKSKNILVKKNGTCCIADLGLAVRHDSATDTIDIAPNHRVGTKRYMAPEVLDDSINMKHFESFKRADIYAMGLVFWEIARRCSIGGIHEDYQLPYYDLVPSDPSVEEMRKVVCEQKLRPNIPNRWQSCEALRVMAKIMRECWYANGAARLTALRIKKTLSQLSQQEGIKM

[2] = target: T2, TGFBR1-myc mutant deleted of the 123-218aa region (UniProt P36897); assay: as above
T2 sequence: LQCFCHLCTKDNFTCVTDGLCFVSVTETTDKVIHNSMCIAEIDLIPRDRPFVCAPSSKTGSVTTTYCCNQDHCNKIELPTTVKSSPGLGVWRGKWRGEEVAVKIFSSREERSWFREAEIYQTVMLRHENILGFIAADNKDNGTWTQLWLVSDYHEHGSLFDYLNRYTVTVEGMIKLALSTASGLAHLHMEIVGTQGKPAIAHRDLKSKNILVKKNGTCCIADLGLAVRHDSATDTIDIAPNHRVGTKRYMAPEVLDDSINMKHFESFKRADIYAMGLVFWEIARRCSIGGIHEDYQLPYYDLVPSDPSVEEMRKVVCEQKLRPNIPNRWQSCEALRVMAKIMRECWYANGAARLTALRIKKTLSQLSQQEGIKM

[3] = target: T3, TGFBR1 (endogenous, H460-tet-CLU cells) (human (endogenous in H460)) (UniProt P36897); assay: co-IP; H460-tet-CLU cell lysate, endogenous proteins, with or without Dox-induced CLU; IP with TAK1 antibody, western blot with TGFBR1, TAK1 and CLU antibodies
T3 sequence: T1 sequence

[4] = target: T1, TGFBR1-myc; assay: co-IP; 293T-tet-CLU cells co-transfected with tagged proteins, with or without Dox-induced CLU; IP with Myc or Flag antibody, western blot with tag and CLU antibodies
[5] = target: T4, TGFBR1-C-luc (pCAG-TGFBR1-C-luc) (UniProt P36897); assay: split reporter; split luciferase halves (C-luc, Nluc) fused to the two proteins; 293T-tet-CLU cells, 250 ng of each plasmid in 24 well plate, 50 ng Renilla vector as transfection control, 1 μg/mL Dox to induce CLU; Dual Luminescent Kit
T4 sequence: T1 sequence

[6] = target: T4, TGFBR1-C-luc (pCAG-TGFBR1-C-luc); assay: as above; remark: listed apart in the source
[7] = target: T5, TAB2-Nluc (pCAG-TAB2-Nluc) (UniProt Q9NYJ8); assay: as above
T5 sequence: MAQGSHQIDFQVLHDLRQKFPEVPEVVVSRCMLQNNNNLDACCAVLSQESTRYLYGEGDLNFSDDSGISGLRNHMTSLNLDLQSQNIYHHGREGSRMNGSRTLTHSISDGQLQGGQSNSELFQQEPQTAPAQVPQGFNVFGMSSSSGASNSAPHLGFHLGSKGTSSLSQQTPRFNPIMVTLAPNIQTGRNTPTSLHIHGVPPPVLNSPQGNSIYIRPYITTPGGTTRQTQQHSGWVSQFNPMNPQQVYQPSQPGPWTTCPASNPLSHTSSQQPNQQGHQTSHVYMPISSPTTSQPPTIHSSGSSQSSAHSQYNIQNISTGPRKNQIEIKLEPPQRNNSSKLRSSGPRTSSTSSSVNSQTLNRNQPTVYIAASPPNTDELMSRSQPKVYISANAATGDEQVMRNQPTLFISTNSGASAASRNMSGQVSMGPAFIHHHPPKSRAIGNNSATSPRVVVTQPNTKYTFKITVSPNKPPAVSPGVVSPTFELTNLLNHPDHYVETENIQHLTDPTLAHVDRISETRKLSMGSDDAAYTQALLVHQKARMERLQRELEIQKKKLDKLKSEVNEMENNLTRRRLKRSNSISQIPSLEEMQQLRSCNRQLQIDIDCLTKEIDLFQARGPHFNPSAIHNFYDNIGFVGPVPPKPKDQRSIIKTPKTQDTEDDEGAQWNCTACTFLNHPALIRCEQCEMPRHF

[8] = target: T6, TAK1-Flag (UniProt O43318); assay: co-IP; 293T-tet-CLU cells co-transfected with tagged proteins, with or without Dox-induced CLU; IP with Myc or Flag antibody, western blot with tag and CLU antibodies
T6 sequence: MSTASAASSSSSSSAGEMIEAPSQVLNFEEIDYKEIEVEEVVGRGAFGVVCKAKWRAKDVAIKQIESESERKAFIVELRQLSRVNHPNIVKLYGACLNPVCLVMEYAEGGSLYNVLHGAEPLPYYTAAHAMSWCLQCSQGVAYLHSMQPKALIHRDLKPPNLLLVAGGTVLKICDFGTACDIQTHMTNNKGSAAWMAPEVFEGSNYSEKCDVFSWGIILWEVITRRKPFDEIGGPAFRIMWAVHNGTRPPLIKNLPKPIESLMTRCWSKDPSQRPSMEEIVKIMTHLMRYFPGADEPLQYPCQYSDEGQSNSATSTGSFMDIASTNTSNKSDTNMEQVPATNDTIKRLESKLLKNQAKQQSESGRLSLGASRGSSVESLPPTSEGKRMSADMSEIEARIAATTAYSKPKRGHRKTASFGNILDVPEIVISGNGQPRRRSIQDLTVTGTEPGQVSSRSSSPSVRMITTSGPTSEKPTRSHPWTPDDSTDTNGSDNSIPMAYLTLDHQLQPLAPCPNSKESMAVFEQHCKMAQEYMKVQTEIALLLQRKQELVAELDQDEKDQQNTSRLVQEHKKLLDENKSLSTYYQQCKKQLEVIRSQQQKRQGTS

[9] = target: CLU-3×Flag (Clusterin, full-length variant sCLU) (UniProt P10909); assay: co-IP; 293T cells co-transfected with CLU-3×Flag and TGFBR1-myc (or its mutant) for 24 h; IP with Flag or with myc antibody, immunoblot with Flag and Myc tag antibodies
[10] = target: T7, TAK1-Luc (pCAG-TAK1-Luc) (UniProt O43318); assay: split reporter; split luciferase halves (C-luc, Nluc) fused to the two proteins; 293T-tet-CLU cells, 250 ng of each plasmid in 24 well plate, 50 ng Renilla vector as transfection control, 1 μg/mL Dox to induce CLU; Dual Luminescent Kit
T7 sequence: T6 sequence

[11] = target: T8, TAK1 (endogenous, H460-tet-CLU cells) (human (endogenous in H460)) (UniProt O43318); assay: co-IP; H460-tet-CLU cell lysate, endogenous proteins, with or without Dox-induced CLU; IP with TAK1 antibody, western blot with TGFBR1, TAK1 and CLU antibodies
T8 sequence: T6 sequence

binding [1]: binds | binding [2]: binds weakly
Molecule: CLU-3×Flag (Clusterin, full-length variant sCLU) (from UniProt P10909-1 23-449)

binding [8]: binds | binding [9]: binds
B3: TGFBR1-myc (receptor, UniProt P36897 34-503)
chain: T1 sequence

Second part, the molecule before the results:

Molecule: Clusterin (CLU), Dox-inducible, in 293T-tet-CLU and H460-tet-CLU cells (from UniProt P10909 23-449)
binding [3]: binds | binding [4]: binds | binding [5]: binds

B1: TAB2-Nluc (pCAG-TAB2-Nluc) (protein, UniProt Q9NYJ8 1-693)
chain: T5 sequence
binding [6]: binds

B2: TAK1-CLUc (pCAG-TAK1-CLUc) (enzyme, UniProt O43318 1-606)
chain: T6 sequence
binding [7]: binds

B4: TGFBR1-C-luc (pCAG-TGFBR1-C-luc) (receptor, UniProt P36897 34-503)
chain: T1 sequence
binding [10]: binds

B5: TGFBR1 (endogenous, H460-tet-CLU cells) (receptor, UniProt P36897 34-503)
chain: T1 sequence
binding [11]: binds
